According to US6506881B1, “Anti-HMFG antibodies and processes for their production” (Celltech R&D Limited, priority 1991, dated 2003):
Residue numbers refer to the chain shown, from its start. Results are given in words; binding and its absence hold for the method and conditions named. Some results given as binding are weak or reduced against the parent protein; the word gives no strength. Blank lines part the entries; values can stand above or below the binder they belong to.

Protein sequences, listed by entry. Tags and fused reporters are not part of them. Residues count along the entry.
UniProt P15941, residues 24-1097: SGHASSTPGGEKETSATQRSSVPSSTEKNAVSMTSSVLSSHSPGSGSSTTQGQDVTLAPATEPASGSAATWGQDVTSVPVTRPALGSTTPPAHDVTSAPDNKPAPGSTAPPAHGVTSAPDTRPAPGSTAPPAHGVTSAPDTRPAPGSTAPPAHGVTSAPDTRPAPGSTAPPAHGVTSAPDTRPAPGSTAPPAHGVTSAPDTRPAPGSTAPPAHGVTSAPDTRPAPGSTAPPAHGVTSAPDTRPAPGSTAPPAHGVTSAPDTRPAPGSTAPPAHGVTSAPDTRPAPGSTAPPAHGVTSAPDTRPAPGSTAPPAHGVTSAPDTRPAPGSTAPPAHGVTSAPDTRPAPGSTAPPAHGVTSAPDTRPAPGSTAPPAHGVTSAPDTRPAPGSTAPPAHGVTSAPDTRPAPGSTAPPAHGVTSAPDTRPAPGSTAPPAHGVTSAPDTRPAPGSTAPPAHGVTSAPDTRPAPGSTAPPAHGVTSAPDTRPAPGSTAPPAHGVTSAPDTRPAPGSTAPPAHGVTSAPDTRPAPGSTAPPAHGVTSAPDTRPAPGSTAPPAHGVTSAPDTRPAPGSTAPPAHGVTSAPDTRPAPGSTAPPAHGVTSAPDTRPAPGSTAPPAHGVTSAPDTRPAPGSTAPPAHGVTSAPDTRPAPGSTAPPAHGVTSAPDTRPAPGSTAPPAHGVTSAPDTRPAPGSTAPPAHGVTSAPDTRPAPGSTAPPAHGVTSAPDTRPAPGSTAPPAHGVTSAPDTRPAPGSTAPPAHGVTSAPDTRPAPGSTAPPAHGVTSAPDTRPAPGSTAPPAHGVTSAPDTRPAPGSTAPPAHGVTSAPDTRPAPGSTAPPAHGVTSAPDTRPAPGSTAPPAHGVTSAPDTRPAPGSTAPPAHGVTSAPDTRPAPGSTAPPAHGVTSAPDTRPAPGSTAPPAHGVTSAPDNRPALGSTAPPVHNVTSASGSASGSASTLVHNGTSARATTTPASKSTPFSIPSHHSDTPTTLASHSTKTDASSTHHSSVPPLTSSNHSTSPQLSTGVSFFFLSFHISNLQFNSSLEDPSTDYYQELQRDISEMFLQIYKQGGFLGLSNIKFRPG

Experiments:
[1] = target: polymorphic epithelial mucin (PEM) of human milk fat globule, affinity-purified on a CTM01 MAb column from pooled human urine or the aqueous component of human milk (human) (UniProt P15941); assay: direct binding ELISA, PEM-coated microwells, order of binding activity
[2] = target: polymorphic epithelial mucin (PEM) of human milk fat globule, affinity-purified on a CTM01 MAb column from pooled human urine or the aqueous component of human milk (human) (UniProt P15941); assay: competition EIA, PEM-coated microwells, biotinylated CTM01 MAb as competitor

binding [1]: binds
binding [2]: binds
B1: gL1gH2, CDR-grafted CTMO1 antibody (plasmids pAL47, pAL52) (antibody, V domains shown)
VH: QIQLVQSGAEVKKPGSSVKVSCKASGYTFTDYYINWMRQAPGQGLEWIGWIDPGSGNTKYNEKFKGRATLTVDTSTNTAYMELSSLRSEDTAFYFCAREKTTYYYAMDYWGQGTLVTVSS
VL: DIQMTQSPSTLSASVGDRVTITCRSSKSLLHSNGDTFLYWFQQKPGKAPKLLMYRMSNLASGVPSRFSGSGSGTEFTLTISSLQPDDFATYYCMQHLEYPFTFGQGTKVEVKR

binding [1]: binds
B2: gL1gH1, CDR-grafted CTMO1 antibody (plasmids pAL47, pAL51) (antibody, V domains shown)
VH: B1 VH with I48M, A68V, L70I
VL: B1 VL
